Measured values taken from publication PMC9108619.

Chains of the proteins cited; added tags and fusions are not shown.
UniProt Q9HAU5: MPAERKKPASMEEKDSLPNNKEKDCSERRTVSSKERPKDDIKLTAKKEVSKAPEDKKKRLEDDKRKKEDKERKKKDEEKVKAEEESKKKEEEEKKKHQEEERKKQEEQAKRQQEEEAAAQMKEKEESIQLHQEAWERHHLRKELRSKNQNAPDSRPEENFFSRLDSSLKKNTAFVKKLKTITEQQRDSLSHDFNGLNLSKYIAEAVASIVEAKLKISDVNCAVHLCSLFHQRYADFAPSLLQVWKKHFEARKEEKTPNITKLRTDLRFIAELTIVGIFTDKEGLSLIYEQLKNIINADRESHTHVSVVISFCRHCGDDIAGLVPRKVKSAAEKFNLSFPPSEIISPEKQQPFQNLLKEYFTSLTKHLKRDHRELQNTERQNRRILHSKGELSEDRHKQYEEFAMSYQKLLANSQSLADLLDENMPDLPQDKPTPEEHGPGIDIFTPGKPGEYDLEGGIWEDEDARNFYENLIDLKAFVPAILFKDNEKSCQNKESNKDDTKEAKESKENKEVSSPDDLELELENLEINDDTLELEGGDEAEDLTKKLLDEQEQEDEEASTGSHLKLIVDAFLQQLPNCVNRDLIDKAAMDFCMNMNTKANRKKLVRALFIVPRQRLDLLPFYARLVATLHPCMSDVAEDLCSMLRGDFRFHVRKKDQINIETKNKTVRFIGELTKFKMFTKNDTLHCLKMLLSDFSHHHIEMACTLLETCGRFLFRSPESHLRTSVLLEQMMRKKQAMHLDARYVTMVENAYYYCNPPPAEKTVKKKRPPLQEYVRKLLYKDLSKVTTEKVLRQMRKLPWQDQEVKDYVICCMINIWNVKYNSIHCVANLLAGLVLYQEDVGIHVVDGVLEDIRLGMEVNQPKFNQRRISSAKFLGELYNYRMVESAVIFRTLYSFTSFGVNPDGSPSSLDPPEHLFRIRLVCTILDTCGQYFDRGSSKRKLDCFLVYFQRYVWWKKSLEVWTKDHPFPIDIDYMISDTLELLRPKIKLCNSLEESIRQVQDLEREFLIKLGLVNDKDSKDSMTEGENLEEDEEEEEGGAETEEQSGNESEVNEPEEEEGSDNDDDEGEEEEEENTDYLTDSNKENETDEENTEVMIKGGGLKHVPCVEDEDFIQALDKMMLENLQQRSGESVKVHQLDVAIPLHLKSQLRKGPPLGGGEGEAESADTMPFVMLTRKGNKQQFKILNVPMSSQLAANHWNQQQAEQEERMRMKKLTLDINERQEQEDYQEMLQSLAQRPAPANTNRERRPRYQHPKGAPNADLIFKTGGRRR
UniProt P15170: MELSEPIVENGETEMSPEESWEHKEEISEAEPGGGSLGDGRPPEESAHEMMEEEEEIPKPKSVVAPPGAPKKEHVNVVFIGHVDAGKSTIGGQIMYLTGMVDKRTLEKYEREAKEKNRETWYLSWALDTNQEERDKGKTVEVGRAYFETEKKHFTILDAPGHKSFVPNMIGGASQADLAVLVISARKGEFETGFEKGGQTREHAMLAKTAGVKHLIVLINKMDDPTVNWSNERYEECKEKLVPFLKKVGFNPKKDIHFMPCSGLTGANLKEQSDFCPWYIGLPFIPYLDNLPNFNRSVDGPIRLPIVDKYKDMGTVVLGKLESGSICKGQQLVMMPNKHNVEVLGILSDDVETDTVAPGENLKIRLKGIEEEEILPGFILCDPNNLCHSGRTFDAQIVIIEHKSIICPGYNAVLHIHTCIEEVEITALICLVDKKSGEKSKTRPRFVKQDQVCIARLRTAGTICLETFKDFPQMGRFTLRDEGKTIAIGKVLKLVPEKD
UniProt O15397: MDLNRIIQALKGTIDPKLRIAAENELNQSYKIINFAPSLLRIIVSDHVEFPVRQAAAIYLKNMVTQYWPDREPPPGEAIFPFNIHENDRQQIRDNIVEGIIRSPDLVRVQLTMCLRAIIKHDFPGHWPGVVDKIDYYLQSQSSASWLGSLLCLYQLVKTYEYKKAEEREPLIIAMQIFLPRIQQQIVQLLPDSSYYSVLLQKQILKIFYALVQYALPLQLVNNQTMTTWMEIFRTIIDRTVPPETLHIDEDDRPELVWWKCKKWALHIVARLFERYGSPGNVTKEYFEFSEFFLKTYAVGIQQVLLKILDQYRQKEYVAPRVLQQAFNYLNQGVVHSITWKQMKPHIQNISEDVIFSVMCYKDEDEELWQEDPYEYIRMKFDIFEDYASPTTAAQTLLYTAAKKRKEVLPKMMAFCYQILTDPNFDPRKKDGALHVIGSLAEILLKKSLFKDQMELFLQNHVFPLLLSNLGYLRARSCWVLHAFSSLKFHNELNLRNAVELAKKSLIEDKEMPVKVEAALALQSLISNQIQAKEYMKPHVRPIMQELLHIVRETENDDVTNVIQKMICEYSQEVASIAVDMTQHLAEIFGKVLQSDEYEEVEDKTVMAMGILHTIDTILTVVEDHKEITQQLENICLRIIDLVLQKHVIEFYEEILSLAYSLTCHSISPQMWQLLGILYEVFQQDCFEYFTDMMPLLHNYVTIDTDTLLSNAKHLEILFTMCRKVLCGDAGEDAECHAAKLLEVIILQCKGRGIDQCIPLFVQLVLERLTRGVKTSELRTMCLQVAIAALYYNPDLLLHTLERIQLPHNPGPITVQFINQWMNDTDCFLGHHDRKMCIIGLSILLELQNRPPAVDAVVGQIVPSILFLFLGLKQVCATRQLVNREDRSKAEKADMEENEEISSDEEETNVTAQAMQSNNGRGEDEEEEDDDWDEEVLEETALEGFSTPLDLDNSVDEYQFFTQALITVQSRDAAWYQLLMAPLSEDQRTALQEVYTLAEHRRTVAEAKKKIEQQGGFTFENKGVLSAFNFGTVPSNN

Tests used:
Assay in all cases: proximity labelling; TurboID; FLAG-TurboID-UPF3B WT or mutants in UPF3B KO clone 90 cells with UPF3A knockdown, 50 µM biotin for 15 min, streptavidin beads, mass spectrometry; against FLAG-TurboID control or against WT
[1] = biological target: T1, FLAG-TurboID-UPF3B (human) (UniProt Q9BZI7)
T1 sequence: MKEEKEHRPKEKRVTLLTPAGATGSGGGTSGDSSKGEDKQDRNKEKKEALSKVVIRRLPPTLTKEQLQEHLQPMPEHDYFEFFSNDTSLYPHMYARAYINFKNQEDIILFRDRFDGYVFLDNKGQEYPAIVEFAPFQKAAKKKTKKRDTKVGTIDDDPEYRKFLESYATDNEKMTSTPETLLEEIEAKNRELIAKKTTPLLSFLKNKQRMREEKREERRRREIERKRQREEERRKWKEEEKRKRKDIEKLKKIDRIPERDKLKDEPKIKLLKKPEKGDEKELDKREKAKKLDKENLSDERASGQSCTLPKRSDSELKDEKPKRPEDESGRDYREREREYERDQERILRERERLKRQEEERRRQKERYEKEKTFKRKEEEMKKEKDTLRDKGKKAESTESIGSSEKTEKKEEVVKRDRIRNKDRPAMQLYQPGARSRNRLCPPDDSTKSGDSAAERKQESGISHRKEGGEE

[2] = biological target: T2, FLAG-TurboID-UPF3B ΔEJC interaction (Δ421–434) (human) (UniProt Q9BZI7)
T2 sequence: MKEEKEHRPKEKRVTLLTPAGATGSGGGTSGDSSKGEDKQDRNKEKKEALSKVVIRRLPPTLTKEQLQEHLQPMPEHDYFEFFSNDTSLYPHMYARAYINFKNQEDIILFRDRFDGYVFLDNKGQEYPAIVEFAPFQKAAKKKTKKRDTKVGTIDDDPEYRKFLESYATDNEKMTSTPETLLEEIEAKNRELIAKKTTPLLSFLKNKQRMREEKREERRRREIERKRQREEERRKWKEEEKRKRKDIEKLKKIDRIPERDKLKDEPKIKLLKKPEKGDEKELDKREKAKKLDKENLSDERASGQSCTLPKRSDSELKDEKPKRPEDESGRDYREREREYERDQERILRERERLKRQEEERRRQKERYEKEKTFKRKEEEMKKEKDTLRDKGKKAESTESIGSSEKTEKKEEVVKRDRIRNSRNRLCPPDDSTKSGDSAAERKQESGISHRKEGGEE

[3] = biological target: T3, FLAG-TurboID-UPF3B ΔUPF2 interaction (K52D/RR56EE) (human) (UniProt Q9BZI7)
T3 sequence: T1 sequence with K52D, R56E, R57E

[4] = biological target: T4, FLAG-TurboID-UPF3B Δmiddle domain (Δ147–256) (human) (UniProt Q9BZI7)
T4 sequence: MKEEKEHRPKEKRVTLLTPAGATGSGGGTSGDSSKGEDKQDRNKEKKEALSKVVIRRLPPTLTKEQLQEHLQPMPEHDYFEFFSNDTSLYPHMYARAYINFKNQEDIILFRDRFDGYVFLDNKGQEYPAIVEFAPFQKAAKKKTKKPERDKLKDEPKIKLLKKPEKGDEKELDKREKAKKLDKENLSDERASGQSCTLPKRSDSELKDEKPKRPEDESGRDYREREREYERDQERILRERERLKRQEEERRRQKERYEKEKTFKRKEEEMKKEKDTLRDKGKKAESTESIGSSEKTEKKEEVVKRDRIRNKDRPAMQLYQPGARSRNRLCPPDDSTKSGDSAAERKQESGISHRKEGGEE

Which binding [1] does the source give for “UPF2 (endogenous) (from UniProt Q9HAU5 1-1272)” here?
Its binding is “binds”.

For “eukaryotic release factor 3a (from UniProt P15170 1-499)”, which binding [1] is on record?
Its binding is “no binding”.

With IPO8 (from UniProt O15397 1-1037) as the molecule, how does the binding [1] read?
The binding was “binds”.

B1: UPF1 (protein, UniProt Q92900 1-1129)
chain: MSVEAYGPSSQTLTFLDTEEAELLGADTQGSEFEFTDFTLPSQTQTPPGGPGGPGGGGAGGPGGAGAGAAAGQLDAQVGPEGILQNGAVDDSVAKTSQLLAELNFEEDEEDTYYTKDLPIHACSYCGIHDPACVVYCNTSKKWFCNGRGNTSGSHIVNHLVRAKCKEVTLHKDGPLGETVLECYNCGCRNVFLLGFIPAKADSVVVLLCRQPCASQSSLKDINWDSSQWQPLIQDRCFLSWLVKIPSEQEQLRARQITAQQINKLEELWKENPSATLEDLEKPGVDEEPQHVLLRYEDAYQYQNIFGPLVKLEADYDKKLKESQTQDNITVRWDLGLNKKRIAYFTLPKTDSGNEDLVIIWLRDMRLMQGDEICLRYKGDLAPLWKGIGHVIKVPDNYGDEIAIELRSSVGAPVEVTHNFQVDFVWKSTSFDRMQSALKTFAVDETSVSGYIYHKLLGHEVEDVIIKCQLPKRFTAQGLPDLNHSQVYAVKTVLQRPLSLIQGPPGTGKTVTSATIVYHLARQGNGPVLVCAPSNIAVDQLTEKIHQTGLKVVRLCAKSREAIDSPVSFLALHNQIRNMDSMPELQKLQQLKDETGELSSADEKRYRALKRTAERELLMNADVICCTCVGAGDPRLAKMQFRSILIDESTQATEPECMVPVVLGAKQLILVGDHCQLGPVVMCKKAAKAGLSQSLFERLVVLGIRPIRLQVQYRMHPALSAFPSNIFYEGSLQNGVTAADRVKKGFDFQWPQPDKPMFFYVTQGQEEIASSGTSYLNRTEAANVEKITTKLLKAGAKPDQIGIITPYEGQRSYLVQYMQFSGSLHTKLYQEVEIASVDAFQGREKDFIILSCVRANEHQGIGFLNDPRRLNVALTRARYGVIIVGNPKALSKQPLWNHLLNYYKEQKVLVEGPLNNLRESLMQFSKPRKLVNTINPGARFMTTAMYDAREAIIPGSVYDRSSQGRPSSMYFQTHDQIGMISAGPSHVAAMNIPIPFNLVMPPMPPPGYFGQANGPAAGRGTPKGKTGRGGRQKNRFGLPGPSQTNLPNSQASQDVASQPFSQGALTQGYISMSQPSQMSQPGLSQPELSQDSYLGDEFKSQIDVALSQDSTYQGERAYQHGGVTGLSQY
Which results are given for B1?
binding [1]: binds; binding [2]: binds; binding [3]: binds; binding [4]: binds

Where a chain is given by its changes, count along the chain named. No constants are given. Whether binding was seen depends on the method and setting. In cells and extracts the contact can be indirect. These calls come from enrichment with a bait or labelling near it, and not all partners need be listed. For some of these results: No binding means not detected with the bait. Where a sequence is shown, tags or fusion partners need not be part of it.
